Results from article doi:10.1101/2023.05.03.539280.
No constants are given. Whether binding was seen depends on the method and setting. Binding seen in cells or lysates may run through a third protein. Some entries that bind do so weakly or less than the wild type. Sequences can lack the tags named with a protein.

Chains of the proteins cited; added tags and fusions are not shown.
UniProt Q9NFU0: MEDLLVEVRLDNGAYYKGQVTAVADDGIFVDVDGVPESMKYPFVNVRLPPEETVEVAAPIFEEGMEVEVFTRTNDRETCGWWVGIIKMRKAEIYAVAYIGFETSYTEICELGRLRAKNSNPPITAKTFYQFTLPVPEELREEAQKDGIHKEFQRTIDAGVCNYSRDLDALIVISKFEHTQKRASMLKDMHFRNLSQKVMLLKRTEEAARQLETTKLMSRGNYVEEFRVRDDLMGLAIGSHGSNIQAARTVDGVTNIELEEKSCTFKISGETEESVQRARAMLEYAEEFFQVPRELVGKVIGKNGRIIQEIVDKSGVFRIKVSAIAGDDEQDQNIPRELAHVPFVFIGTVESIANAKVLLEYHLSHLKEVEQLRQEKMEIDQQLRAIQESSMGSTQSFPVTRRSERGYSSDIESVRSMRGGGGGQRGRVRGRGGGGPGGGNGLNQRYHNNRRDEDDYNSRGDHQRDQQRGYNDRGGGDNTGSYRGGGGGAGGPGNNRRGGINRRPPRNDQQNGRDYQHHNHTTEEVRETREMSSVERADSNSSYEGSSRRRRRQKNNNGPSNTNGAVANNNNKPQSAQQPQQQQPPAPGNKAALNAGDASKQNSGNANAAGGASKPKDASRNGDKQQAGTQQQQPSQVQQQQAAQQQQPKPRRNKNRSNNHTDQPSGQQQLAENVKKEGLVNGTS
UniProt Q32KD4: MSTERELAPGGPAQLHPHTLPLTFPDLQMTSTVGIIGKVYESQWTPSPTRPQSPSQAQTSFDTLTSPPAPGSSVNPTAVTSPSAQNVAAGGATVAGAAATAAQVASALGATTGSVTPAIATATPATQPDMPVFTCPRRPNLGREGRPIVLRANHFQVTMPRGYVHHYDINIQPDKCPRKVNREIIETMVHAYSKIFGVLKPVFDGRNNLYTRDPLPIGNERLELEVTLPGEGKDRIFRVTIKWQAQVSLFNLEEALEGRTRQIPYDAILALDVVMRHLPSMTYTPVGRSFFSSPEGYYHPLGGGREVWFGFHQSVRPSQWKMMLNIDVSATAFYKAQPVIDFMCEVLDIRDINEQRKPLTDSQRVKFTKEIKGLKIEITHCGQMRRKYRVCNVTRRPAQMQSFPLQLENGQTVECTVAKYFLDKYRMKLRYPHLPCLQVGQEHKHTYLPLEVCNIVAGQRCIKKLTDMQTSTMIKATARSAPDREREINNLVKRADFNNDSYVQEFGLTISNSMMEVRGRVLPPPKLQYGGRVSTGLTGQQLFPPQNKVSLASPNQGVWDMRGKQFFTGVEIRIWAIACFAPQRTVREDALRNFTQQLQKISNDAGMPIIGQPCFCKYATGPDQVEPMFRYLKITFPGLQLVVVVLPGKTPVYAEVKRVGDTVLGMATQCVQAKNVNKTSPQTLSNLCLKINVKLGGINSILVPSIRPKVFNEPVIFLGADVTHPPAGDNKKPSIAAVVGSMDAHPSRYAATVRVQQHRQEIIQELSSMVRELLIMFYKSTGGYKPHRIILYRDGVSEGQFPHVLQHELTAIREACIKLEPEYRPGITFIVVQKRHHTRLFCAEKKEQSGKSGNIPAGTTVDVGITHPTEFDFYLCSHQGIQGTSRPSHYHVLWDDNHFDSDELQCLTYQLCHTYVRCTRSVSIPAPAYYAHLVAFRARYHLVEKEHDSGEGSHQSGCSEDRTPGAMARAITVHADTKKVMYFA

Target: λN-HA tagged full length Drosophila FMRP (dFMRP) (Drosophila) (UniProt Q9NFU0)
Assay: co-IP

Molecule | binding
FLAG-tagged AGO1 (from UniProt Q32KD4 1-984) | binds
FLAG-tagged GW182 (protein, UniProt Q8SY33 1-1384) MREALFSQDGWGCQHVNQDTNWEVPSSPEPANKDAPGPPMWKPSINNGTDLWESNLRNGGQPAAQQVPKPSWGHTPSSNLGGTWGEDDDGADSSSVWTGGAVSNAGSGAAVGVNQAGVNVGPGGVVSSGGPQWGQGVVGVGLGSTGGNGSSNITGSSGVATGSSGNSSNAGNGWGDPREIRPLGVGGSMDIRNVEHRGGNGSGATSSDPRDIRMIDPRDPIRGDPRGISGRLNGTSEMWGHHPQMSHNQLQGINKMVGQSVATASTSVGTSGSGIGPGGPGPSTVSGNIPTQWGPAQPVSVGVSGPKDMSKQISGWEEPSPPPQRRSIPNYDDGTSLWGQQTRVPAASGHWKDMTDSIGRSSHLMRGQSQTGGIGIAGVGNSNVPVGANPSNPISSVVGPQARIPSVGGVQHKPDGGAMWVHSGNVGGRNNVAAVTTWGDDTHSVNVGAPSSGSVSSNNWVDDKSNSTLAQNSWSDPAPVGVSWGNKQSKPPSNSASSGWSTAAGVVDGVDLGSEWNTHGGIIGKSQQQQKLAGLNVGMVNVINAEIIKQSKQYRILVENGFKKEDVERALVIANMNIEEAADMLRANSSLSMDGWRRHDESLGSYADHNSSTSSGGFAGRYPVNSGQPSMSFPHNNLMNNMGGTAVTGGNNNTNMTALQVQKYLNQGQHGVAVGPQAVGNSSAVSVGFGQNTSNAAVAGAASVNIAANTNNQPSGQQIRMLGQQIQLAIHSGFISSQILTQPLTQTTLNLLNQLLSNIKHLQAAQQSLTRGGNVNPMAVNVAISKYKQQIQNLQNQINAQQAVYVKQQNMQPTSQQQQPQQQQLPSVHLSNSGNDYLRGHDAINNLQSNFSELNINKPSGYQGASNQQSRLNQWKLPVLDKEINSDSTEFSRAPGATKQNLTANTSNINSLGLQNDSTWSTGRSIGDGWPDPSSDNENKDWSVAQPTSAATAYTDLVQEFEPGKPWKGSQIKSIEDDPSITPGSVARSPLSINSTPKDADIFANTGKNSPTDLPPLSLSSSTWSFNPNQNYPSHSWSDNSQQCTATSELWTSPLNKSSSRGPPPGLTANSNKSANSNASTPTTITGGANGWLQPRSGGVQTTNTNWTGGNTTWGSSWLLLKNLTAQIDGPTLRTLCMQHGPLVSFHPYLNQGIALCKYTTREEANKAQMALNNCVLANTTIFAESPSENEVQSIMQHLPQTPSSTSSSGTSGGNVGGVGTSANNANSGSAACLSGNNSGNGNGSASGAGSGNNGNSSCNNSAAGGGSSSNNTITTVANSNLVGSSGSVSNSSGVTANSSTVSVVSCTASGNSINGAGTANSSGSKSSANNLASGQSSASNLTNSTNSTWRQTSQNQALQSQSRPSGREADFDYISLVYSIVDD | binds
